The record followed here is patent US8338368B2 (priority 2005, dated 2012).

The nature of this data set: general procedure: Boc solid-phase peptide synthesis; Boc Thr(OBzl) Pam resin; methoxybenzhydrylamine resin; HBTU. Conditions: conjugation step.

On to Glucagon Cys^24 Mal-PEG-20K, for which the difficulty met entry was “The product ratio had not significantly improved”.
